Laboratory results as given in article PMC4694719.
Results are given in words; binding and its absence hold for the method and conditions named. For part of these data: Binding can be weak; no strength is given. Sequences can lack the tags named with a protein.

Columns and labels:
Assay in all cases: two-hybrid; LexA-based yeast two-hybrid system (BD Clontech), LexA-CSU2 fusions and B42AD-COP1 fusions co-transformed into yeast strain EGY48, β-galactosidase activity
[1] = biological target: T1, COP1 SUPPRESSOR 2 (CSU2), full length, LexA fusion (Arabidopsis thaliana) (UniProt F4HVZ5)
T1 sequence: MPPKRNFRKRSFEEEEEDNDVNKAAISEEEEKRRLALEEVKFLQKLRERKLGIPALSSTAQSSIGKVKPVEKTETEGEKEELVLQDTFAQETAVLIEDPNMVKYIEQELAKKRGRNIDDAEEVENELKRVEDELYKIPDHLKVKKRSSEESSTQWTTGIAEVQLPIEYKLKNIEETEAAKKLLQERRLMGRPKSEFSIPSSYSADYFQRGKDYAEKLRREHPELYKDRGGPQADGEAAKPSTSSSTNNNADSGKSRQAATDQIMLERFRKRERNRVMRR

[2] = biological target: CSU2 coiled-coil domain, LexA fusion (Arabidopsis thaliana)
[3] = biological target: CSU2 lacking the coiled-coil domain, LexA fusion (Arabidopsis thaliana)

COP1 WD40, B42 activation domain fusion (Arabidopsis thaliana) (domain or fragment)
binding [1]: no binding

COP1 Ring, B42 activation domain fusion (Arabidopsis thaliana) (domain or fragment)
binding [1]: no binding

COP1 ΔRing, B42 activation domain fusion (Arabidopsis thaliana) (domain or fragment)
binding [1]: binds

COP1 coil, B42 activation domain fusion (Arabidopsis thaliana) (domain or fragment)
binding [1]: binds

B1: COP1 N282, B42 activation domain fusion (domain or fragment, UniProt P43254 1-282)
chain: MEEISTDPVVPAVKPDPRTSSVGEGANRHENDDGGSGGSEIGAPDLDKDLLCPICMQIIKDAFLTACGHSFCYMCIITHLRNKSDCPCCSQHLTNNQLYPNFLLDKLLKKTSARHVSKTASPLDQFREALQRGCDVSIKEVDNLLTLLAERKRKMEQEEAERNMQILLDFLHCLRKQKVDELNEVQTDLQYIKEDINAVERHRIDLYRARDRYSVKLRMLGDDPSTRNAWPHEKNQIGFNSNSLSIRGGNFVGNYQNKKVEGKAQGSSHGLPKKDALSGSDS
binding [2]: binds | binding [3]: no binding
